Source: patent US20150253341A1
No constants are given. Whether binding was seen depends on the method and setting. For some assays here: Binding seen in cells or lysates may run through a third protein. Some results given as binding are weak or reduced against the parent protein; the word gives no strength.

Amino acid sequences for entries named in this document (tags omitted). A change or cut given only in a name is not applied to a line headed by its entry. Chains listed by the source or under a name are the forms on record and can include a tag or linker.
UniProt P10636: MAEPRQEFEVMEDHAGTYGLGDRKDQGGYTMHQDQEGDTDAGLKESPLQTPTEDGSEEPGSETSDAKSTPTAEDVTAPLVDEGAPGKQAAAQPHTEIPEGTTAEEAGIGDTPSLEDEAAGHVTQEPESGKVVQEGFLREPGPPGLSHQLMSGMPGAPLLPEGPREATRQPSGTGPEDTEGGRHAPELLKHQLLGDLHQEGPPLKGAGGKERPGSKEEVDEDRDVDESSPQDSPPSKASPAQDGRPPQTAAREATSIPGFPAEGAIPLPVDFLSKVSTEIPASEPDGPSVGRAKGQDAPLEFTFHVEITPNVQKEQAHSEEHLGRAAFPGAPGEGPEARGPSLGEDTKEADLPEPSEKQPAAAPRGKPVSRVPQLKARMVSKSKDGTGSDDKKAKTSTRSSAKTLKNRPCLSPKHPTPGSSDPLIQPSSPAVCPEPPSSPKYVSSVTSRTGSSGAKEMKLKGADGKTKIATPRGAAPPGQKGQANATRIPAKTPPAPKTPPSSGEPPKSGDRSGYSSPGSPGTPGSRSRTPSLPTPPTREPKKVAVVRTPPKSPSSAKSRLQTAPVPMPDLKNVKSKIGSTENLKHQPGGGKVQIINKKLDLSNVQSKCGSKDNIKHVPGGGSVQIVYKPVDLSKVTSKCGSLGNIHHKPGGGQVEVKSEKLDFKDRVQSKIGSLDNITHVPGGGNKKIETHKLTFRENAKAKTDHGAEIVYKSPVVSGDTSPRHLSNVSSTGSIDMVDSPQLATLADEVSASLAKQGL
recombinant human Tau isoform 5 (412 amino acids) (P10636, form named): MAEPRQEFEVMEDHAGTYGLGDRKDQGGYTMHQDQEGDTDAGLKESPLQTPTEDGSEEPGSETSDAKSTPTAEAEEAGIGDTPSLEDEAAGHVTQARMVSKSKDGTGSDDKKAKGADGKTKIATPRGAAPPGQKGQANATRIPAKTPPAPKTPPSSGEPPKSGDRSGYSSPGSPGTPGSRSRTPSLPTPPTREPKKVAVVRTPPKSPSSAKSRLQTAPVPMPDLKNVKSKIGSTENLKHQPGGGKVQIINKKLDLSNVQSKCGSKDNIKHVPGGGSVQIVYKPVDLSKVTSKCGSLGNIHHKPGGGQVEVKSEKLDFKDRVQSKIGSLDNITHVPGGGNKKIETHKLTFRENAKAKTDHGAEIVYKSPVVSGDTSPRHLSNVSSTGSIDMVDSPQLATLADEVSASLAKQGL
recombinant human Tau isoform 3 (383 amino acids) (P10636, form named): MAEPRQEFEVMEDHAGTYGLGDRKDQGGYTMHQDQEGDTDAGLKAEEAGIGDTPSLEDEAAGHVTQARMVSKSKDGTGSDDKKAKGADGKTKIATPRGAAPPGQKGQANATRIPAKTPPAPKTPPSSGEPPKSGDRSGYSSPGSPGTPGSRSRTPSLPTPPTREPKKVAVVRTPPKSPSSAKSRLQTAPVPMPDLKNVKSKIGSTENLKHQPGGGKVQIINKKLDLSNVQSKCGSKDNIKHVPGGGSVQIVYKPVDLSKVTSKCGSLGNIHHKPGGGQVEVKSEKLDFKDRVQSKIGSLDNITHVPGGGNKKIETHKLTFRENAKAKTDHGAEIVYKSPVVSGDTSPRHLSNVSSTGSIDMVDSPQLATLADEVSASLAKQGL
recombinant human Tau isoform 4 (352 amino acids) (P10636, form named): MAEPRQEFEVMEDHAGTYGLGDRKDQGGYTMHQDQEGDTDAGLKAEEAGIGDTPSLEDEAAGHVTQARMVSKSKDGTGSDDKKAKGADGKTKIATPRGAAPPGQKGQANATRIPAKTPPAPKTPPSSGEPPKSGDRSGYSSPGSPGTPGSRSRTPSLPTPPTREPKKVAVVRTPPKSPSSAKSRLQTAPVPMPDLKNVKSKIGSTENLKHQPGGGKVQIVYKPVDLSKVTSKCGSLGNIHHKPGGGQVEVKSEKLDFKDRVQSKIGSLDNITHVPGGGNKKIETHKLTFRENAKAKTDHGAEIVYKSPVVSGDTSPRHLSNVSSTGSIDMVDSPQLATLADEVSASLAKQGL
recombinant human Tau isoform 7 (381 amino acids) (P10636, form named): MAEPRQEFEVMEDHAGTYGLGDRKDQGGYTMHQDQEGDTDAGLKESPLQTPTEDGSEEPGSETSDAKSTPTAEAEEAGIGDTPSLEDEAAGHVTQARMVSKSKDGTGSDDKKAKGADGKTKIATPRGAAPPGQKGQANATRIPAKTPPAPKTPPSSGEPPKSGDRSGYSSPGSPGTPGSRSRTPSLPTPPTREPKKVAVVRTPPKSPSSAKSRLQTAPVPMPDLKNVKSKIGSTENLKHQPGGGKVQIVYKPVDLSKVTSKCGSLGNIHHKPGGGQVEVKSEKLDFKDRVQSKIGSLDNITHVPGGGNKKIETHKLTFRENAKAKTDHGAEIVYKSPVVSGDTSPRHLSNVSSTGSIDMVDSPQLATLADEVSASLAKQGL
recombinant human Tau isoform 8 (410 amino acids) (P10636, form named): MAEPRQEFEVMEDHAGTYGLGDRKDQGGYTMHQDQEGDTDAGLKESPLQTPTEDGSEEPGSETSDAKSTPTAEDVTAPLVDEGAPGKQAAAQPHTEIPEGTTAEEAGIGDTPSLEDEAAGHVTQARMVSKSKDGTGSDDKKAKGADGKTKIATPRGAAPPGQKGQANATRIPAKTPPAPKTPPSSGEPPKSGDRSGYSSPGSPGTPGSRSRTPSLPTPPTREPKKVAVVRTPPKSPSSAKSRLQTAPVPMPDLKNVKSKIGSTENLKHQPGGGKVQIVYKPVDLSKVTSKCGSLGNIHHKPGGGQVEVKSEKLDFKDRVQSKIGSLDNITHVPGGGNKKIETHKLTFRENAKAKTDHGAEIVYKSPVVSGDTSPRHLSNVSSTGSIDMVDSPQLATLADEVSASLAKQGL

Legend:
[1] = target: T1, Tau peptide TREPK (Tau amino acids 220-224) (human); assay: Luminex bead peptide epitope mapping
T1 sequence (peptide): TREPK

[2] = target: full length 13C-15N Arg/Lys labeled Tau (412AA) internal standard protein (human) (UniProt P10636); assay: light/heavy Tau ratio with or without immunoaffinity enrichment on anti-Tau mAb beads, LC-MS/MS (n=4)
[3] = target: recombinant human Tau isoform 3 (383 amino acids) (human) (UniProt P10636); assay: immunoaffinity purification on 13A6 beads, LC-MS/MS
[4] = target: recombinant human Tau isoform 4 (352 amino acids) (human) (UniProt P10636); assay: as above
[5] = target: recombinant human Tau isoform 2 (441 amino acids) (human) (UniProt P10636); assay: as above
[6] = target: recombinant human Tau isoform 7 (381 amino acids) (human) (UniProt P10636); assay: as above
[7] = target: recombinant human Tau isoform 8 (410 amino acids) (human) (UniProt P10636); assay: as above
[8] = target: recombinant human Tau isoform 5 (412 amino acids) (human) (UniProt P10636); assay: as above

Measured: binding

B1: mouse monoclonal anti-Tau antibody clone 13A6 (antibody, V domains shown)
VH: EVQLQQSGAELVRPGASVKLPCTASGFNIKDDYMNWVMQRPERGLEWIGWIDPENGDTAYASKFQGKATMTADTSSNTAYLQLSSLTSEDTAVYYCTSGGRFDYWGQGTSLTVSS
VL: DVLMTQTPLSLPVSLGDQASISCRSSQSIVHSNGSTYLEWYLQKPGQSPKLLIYKVSNRFSGVPDRFSGSGSGTDFTLKINRVEAEDLGVYYCFQGSHVPWTFGGGTKLEIK
binds: all assays above
